The values that follow come from the supplement of paper PMC10849652.

The chains behind the UniProt entries cited, without tags or fusion partners. Where a name states a change or a piece, a line headed by the entry shows the natural chain unless it says otherwise.
UniProt P55957: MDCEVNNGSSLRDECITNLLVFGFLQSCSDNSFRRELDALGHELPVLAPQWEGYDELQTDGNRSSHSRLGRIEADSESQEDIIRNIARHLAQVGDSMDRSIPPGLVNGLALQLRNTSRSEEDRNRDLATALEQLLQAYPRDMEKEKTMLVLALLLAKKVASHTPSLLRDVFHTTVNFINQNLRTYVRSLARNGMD
UniProt Q99700, whole entry, looked up: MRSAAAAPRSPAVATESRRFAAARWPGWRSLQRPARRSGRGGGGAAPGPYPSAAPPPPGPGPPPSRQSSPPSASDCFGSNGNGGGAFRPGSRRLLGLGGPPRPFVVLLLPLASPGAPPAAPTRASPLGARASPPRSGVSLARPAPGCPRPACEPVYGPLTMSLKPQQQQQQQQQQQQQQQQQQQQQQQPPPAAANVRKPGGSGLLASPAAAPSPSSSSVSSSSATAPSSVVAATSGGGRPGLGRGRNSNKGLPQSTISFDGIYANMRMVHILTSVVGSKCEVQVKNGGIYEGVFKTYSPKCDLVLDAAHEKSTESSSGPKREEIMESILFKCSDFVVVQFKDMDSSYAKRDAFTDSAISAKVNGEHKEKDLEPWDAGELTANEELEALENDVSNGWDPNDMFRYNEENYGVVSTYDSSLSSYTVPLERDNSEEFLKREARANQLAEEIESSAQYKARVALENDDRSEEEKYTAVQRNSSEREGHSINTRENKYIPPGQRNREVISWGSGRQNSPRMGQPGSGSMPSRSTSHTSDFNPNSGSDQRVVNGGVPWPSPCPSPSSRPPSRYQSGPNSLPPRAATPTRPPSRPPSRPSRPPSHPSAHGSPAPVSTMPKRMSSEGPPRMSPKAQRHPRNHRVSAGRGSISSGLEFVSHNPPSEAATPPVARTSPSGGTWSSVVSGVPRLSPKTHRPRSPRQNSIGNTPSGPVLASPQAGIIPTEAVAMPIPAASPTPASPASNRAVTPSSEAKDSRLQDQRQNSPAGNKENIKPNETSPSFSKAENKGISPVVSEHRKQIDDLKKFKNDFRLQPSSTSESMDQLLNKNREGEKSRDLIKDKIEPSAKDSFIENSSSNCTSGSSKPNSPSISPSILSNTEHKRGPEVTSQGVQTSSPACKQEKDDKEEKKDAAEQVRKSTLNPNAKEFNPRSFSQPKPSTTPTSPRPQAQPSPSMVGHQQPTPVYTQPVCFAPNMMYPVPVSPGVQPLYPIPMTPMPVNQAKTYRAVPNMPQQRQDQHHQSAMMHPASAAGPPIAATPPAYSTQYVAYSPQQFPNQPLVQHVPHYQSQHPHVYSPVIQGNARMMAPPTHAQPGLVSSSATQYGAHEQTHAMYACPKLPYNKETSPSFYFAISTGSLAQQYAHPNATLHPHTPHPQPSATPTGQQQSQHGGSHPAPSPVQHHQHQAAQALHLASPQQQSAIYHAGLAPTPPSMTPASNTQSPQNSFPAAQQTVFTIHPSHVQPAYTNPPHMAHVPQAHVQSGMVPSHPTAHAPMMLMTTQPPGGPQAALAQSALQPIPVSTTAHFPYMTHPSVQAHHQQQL
UniProt Q53S33: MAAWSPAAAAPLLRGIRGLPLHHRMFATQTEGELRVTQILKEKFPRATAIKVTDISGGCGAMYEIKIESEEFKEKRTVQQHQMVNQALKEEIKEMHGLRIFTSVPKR
UniProt Q6Y288: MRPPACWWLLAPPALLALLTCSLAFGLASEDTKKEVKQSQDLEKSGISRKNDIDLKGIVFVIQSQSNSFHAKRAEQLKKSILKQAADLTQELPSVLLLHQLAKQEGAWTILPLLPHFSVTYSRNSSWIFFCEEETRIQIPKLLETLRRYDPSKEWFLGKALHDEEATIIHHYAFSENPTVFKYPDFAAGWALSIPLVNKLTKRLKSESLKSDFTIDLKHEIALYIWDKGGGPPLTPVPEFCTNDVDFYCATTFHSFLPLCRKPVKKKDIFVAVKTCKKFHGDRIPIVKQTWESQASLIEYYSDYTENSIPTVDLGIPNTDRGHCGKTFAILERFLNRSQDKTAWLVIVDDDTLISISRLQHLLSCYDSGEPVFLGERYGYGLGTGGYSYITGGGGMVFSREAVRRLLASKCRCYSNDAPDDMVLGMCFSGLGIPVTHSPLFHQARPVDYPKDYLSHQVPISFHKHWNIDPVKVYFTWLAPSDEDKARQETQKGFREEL
UniProt Q8NFC6: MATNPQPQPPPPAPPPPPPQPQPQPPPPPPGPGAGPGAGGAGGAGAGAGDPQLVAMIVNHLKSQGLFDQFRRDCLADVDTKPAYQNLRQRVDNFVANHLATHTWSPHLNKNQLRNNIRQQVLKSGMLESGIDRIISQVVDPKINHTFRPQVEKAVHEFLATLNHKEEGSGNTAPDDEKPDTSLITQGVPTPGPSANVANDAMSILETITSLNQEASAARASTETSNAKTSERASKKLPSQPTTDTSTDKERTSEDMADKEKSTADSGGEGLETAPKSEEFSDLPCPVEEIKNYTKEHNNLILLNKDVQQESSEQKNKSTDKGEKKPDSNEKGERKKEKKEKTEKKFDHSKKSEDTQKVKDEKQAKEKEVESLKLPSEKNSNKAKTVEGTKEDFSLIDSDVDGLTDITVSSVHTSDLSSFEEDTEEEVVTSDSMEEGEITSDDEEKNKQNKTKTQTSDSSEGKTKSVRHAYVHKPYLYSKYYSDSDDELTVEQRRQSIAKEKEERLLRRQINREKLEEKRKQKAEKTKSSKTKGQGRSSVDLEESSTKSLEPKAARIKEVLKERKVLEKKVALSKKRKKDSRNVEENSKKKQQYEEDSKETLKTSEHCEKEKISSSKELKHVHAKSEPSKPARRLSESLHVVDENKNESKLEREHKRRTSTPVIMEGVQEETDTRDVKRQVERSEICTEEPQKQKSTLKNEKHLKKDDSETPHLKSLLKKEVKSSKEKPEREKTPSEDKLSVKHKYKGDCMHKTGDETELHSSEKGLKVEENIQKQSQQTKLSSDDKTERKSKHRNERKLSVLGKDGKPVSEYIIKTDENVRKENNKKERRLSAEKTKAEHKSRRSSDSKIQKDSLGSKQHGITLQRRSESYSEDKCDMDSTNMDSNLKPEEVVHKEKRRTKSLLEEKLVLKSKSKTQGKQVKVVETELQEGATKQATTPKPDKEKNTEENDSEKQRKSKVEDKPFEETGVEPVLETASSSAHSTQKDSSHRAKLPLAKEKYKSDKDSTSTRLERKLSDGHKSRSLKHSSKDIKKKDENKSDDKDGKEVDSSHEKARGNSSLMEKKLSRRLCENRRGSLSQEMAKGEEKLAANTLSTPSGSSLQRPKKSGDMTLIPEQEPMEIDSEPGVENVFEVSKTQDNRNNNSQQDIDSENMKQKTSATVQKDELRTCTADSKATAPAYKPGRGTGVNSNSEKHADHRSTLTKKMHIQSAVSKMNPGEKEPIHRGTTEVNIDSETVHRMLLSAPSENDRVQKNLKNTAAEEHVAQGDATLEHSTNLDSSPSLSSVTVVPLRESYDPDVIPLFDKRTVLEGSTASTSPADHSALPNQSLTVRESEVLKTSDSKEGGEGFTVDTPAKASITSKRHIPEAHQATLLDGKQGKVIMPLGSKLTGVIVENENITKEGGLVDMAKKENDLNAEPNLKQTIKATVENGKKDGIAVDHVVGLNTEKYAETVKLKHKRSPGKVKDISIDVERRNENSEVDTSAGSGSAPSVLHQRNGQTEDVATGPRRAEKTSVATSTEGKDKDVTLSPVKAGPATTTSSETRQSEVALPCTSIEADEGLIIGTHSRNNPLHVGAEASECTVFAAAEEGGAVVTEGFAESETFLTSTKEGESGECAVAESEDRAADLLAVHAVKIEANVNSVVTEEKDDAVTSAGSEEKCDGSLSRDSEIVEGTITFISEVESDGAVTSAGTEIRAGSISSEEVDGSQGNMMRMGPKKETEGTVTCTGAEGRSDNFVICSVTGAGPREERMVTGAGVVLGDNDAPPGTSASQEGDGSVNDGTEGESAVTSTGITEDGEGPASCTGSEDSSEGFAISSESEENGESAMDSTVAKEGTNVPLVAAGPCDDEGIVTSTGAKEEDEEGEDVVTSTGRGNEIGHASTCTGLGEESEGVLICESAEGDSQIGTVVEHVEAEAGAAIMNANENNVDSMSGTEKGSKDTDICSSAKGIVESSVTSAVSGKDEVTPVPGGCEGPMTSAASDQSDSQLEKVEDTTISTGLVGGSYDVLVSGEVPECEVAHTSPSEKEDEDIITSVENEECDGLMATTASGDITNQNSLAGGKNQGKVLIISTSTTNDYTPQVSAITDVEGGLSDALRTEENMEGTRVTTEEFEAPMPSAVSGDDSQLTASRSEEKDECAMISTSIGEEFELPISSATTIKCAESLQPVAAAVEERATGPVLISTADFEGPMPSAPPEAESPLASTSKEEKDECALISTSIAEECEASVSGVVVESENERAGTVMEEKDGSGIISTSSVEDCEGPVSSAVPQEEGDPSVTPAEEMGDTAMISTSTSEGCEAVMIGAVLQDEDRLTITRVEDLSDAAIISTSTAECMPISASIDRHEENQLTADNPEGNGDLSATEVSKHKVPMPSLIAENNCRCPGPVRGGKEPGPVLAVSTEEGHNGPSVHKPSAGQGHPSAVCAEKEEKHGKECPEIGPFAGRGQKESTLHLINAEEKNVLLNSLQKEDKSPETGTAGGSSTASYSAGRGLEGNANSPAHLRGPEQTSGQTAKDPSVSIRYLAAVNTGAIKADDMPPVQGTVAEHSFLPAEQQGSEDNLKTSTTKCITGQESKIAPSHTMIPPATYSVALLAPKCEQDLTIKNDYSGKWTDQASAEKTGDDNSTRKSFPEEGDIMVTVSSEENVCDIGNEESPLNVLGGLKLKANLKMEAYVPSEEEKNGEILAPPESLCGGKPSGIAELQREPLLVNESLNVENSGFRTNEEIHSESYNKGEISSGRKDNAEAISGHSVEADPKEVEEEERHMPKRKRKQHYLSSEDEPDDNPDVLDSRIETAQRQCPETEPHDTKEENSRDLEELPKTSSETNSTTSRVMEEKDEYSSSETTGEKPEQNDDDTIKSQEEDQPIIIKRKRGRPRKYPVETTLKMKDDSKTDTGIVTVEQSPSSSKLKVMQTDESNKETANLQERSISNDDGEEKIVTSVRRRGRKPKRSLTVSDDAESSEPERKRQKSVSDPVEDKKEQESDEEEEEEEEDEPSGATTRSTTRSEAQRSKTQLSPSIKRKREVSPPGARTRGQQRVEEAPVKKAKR
UniProt Q9NW68: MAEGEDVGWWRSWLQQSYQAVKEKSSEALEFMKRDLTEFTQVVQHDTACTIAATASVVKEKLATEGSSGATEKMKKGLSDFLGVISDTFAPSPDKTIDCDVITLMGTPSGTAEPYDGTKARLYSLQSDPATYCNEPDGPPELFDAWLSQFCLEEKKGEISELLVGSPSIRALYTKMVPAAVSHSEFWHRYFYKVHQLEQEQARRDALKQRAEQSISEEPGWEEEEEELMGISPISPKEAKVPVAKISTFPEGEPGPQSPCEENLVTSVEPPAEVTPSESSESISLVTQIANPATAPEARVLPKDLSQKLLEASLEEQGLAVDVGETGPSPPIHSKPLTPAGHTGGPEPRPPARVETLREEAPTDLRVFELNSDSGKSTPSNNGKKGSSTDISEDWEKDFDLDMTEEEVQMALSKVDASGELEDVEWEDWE
UniProt Q16611: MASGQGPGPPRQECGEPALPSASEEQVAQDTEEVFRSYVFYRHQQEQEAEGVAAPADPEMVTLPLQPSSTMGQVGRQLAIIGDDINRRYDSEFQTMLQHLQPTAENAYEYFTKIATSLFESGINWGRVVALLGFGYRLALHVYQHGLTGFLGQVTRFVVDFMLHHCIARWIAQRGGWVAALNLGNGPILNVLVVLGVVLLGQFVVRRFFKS
UniProt O14965: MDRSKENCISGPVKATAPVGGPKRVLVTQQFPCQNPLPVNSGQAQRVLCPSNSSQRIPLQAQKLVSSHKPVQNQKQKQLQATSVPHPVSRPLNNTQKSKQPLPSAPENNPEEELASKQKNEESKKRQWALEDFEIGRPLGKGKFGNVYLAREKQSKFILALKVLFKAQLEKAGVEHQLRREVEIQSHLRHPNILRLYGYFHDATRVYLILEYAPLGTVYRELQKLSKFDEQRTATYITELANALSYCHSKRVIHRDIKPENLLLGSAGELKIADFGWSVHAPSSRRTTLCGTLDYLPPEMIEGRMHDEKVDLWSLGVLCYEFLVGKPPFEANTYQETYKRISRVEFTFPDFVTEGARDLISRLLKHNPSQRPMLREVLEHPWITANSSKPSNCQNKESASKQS
UniProt O75934: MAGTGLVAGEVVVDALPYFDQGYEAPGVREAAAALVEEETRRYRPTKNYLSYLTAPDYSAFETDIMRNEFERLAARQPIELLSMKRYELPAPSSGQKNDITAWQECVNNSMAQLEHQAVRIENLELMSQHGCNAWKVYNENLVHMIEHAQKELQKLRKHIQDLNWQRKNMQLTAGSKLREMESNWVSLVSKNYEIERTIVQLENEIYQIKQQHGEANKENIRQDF

The other results are listed elsewhere or left out.

What all share (test): log2 fold change, soluble protein after heating vs DMSO (PISA); higher = thermal stabilisation; K562 cells, 10 uM, 30 min; active = over 0.2 and 3.5 SD of the protein, either way, in both replicates (recomputed)
Compound in assay [1]: COC1=CC=C(C=C1)CN2C=CC3=C2C=C(C=C3)C(=O)NO
The gist of the method:
(§1)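 K562 cells at 2×10^6 cells/mL were exposed to 10 μM compound for 30 min, then aliquots were heated for 3 min across 48°C-58°C, pooled, and extracted in PBS containing 0.5% NP-40 at 4°C. The supernatant after 21,000xg for 90 min was taken as soluble protein and measured by TMTpro 16plex LC-MS/MS with channel sums equalised. Thermal stability is reported relative to control samples, with values from duplicates. Fold changes are given on a log2 scale.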

Compound in a further assay: CON(C)C(=O)N1N=C(c2cc(F)ccc2F)S[C@@]1(CCCN)c1ccccc1 [filanesib]
The gist of the method: as §1

Compound in the next assay: CO[C@H]1C[C@@H]2CC[C@@H](C)[C@@](O)(O2)C(=O)C(=O)N2CCCC[C@H]2C(=O)O[C@H]([C@H](C)C[C@@H]2CC[C@H](n3cnnn3)[C@H](OC)C2)CC(=O)[C@H](C)/C=C(\C)[C@@H](O)[C@@H](OC)C(=O)[C@H](C)C[C@H](C)/C=C/C=C/C=C/1C [zotarolimus]
The gist of the method: as §1

Compound in a further assay: COc1cc(C(=O)O)ccc1NC(=O)[C@@H]1N[C@@H](CC(C)(C)C)[C@](C#N)(c2ccc(Cl)cc2F)[C@H]1c1cccc(Cl)c1F [idasanutlin]
An outline of the steps: as §1

Compound in another assay: COc1cc(Nc2ncc3c(n2)-c2ccc(Cl)cc2C(c2c(F)cccc2OC)=NC3)ccc1C(=O)O [alisertib]
The gist of the method: as §1

Compound in assay [2]: COc1cc2nc(-c3cc(F)ccc3O)nc(N[C@@H]3CNC[C@H]3C(C)(C)O)c2cc1OC
The gist of the method: as §1

Compound in a further assay: COc1cc2ncnc(Nc3ccc(F)c(Cl)c3)c2cc1OCCCN1CCOCC1 [gefitinib]
An outline of the steps:
as §1

Compound in assay [3]: COc1cccc2cc(-c3nc([C@H]4CC[C@H](C(=O)O)CC4)n4ncnc(N)c34)[nH]c12
An outline of the steps:
as §1

Compound in a further assay: CS(=O)(=O)CCNCc1ccc(-c2ccc3ncnc(Nc4ccc(OCc5cccc(F)c5)c(Cl)c4)c3c2)o1 [lapatinib]
The gist of the method: as §1

Compound in the next assay: CS(=O)(=O)N1CCN(Cc2cc3nc(-c4cccc5[nH]ncc45)nc(N4CCOCC4)c3s2)CC1 [pictilisib]
An outline of the steps: as §1

BID isoform 2 (UniProt P55957): the log2 fold change in assay [1] was inactive: 0.045; with filanesib, inactive: 0.016; with zotarolimus it was inactive: 0.08; with idasanutlin, inactive: 0.016; with alisertib it was inactive: -0.045; in assay [2] it was inactive: -0.006. Moreover, the log2 fold change was inactive: 0 with gefitinib, inactive: 0.089 in [3], inactive: 0.005 in the assay with lapatinib and inactive: 0.038 with pictilisib.

Turning to ATXN2 (UniProt Q99700), the log2 fold change in [1] is inactive: -0.019; in the assay with filanesib, inactive: 0.017; with zotarolimus, inactive: -0.009; with idasanutlin, inactive: 0.066; with alisertib, inactive: 0.176; in [2], inactive: 0.024. Besides, the log2 fold change with gefitinib is inactive: 0.037; in assay [3], inactive: 0.013; with lapatinib it was inactive: 0.027; with pictilisib it was inactive: 0.007.

For the target BOLA3 (UniProt Q53S33), the log2 fold change in assay [1] is inactive: -0.082; in the assay with filanesib it was inactive: -0.025; with zotarolimus, inactive: -0.048; in the assay with idasanutlin, inactive: -0.019; with alisertib it was inactive: 0.017; in [2], inactive: 0. The log2 fold change was inactive: -0.013 with gefitinib, inactive: 0.045 in assay [3], inactive: -0.016 with lapatinib and inactive: -0.013 with pictilisib.

Take B3GLCT (UniProt Q6Y288): the log2 fold change in assay [1] was inactive: -0.107; with filanesib it was inactive: -0.016; in the assay with zotarolimus, inactive: 0.019; with idasanutlin, inactive: -0.019; with alisertib, inactive: -0.058; in assay [2], inactive: -0.103. The log2 fold change with gefitinib is inactive: -0.017; in [3], inactive: -0.008; in the assay with lapatinib, inactive: 0.216; in the assay with pictilisib it was inactive: 0.089.

For BCAT2 (UniProt O15382), the log2 fold change is inactive: 0.028 in [1]; inactive: -0.003 in the assay with filanesib; inactive: -0.04 with zotarolimus; inactive: -0.019 with idasanutlin; inactive: -0.048 with alisertib; inactive: 0.028 in [2]. Moreover, the log2 fold change with gefitinib is inactive: 0.009; in assay [3], inactive: 0.05; with lapatinib, inactive: -0.031; in the assay with pictilisib, inactive: 0.014.

As to BOD1L1 (UniProt Q8NFC6), the log2 fold change was inactive: -0.019 in assay [1]; inactive: 0.125 in the assay with filanesib; inactive: -0.016 with zotarolimus; inactive: 0.103 with idasanutlin; inactive: 0.034 in the assay with alisertib; inactive: 0.019 in [2]. For the same target, the log2 fold change was inactive: -0.012 with gefitinib, inactive: -0.024 in assay [3], inactive: 0.023 with lapatinib and inactive: -0.028 with pictilisib.

For BSDC1 (UniProt Q9NW68), the log2 fold change was inactive: -0.058 in [1]; inactive: -0.047 in the assay with filanesib; inactive: -0.032 in the assay with zotarolimus; inactive: -0.038 with idasanutlin; inactive: -0.047 with alisertib; inactive: -0.118 in [2]. Besides, the log2 fold change with gefitinib is inactive: -0.06; in assay [3], inactive: 0.029; in the assay with lapatinib, inactive: -0.038; with pictilisib it was inactive: -0.004.

Consider ATRIP (UniProt Q8WXE1), for which the log2 fold change in [1] is inactive: -0.152; with filanesib it was inactive: 0.016; with zotarolimus, inactive: 0.034; with idasanutlin, inactive: 0; with alisertib, inactive: -0.02; in assay [2] it was inactive: 0.1. Also, the log2 fold change with gefitinib is inactive: 0.001; in assay [3], inactive: -0.013; with lapatinib, inactive: 0.019; in the assay with pictilisib, inactive: 0.006.

Consider BAK1 (UniProt Q16611), for which the log2 fold change in [1] is inactive: -0.16; in the assay with filanesib it was inactive: 0.007; in the assay with zotarolimus, inactive: 0.067; with idasanutlin, inactive: -0.067; with alisertib, inactive: -0.054; in [2], inactive: -0.071. The log2 fold change in the assay with gefitinib was inactive: 0.121; in [3], inactive: 0.082; in the assay with lapatinib it was inactive: 0.002; with pictilisib, inactive: -0.036.

BORCS6 (UniProt Q96GS4): the log2 fold change in [1] is inactive: 0.031; with filanesib it was inactive: -0.127; with zotarolimus, inactive: -0.055; in the assay with idasanutlin, inactive: -0.013; in the assay with alisertib it was inactive: 0.003; in [2], inactive: -0.001. In addition, the log2 fold change was inactive: 0.015 in the assay with gefitinib, inactive: 0.051 in [3], inactive: -0.026 with lapatinib and inactive: 0.089 with pictilisib.

AURKA (UniProt O14965): the log2 fold change was inactive: 0.021 in assay [1]; inactive: 0.009 with filanesib; inactive: -0.021 with zotarolimus; inactive: -0.095 with idasanutlin; active: 1.36 with alisertib; inactive: 0.048 in assay [2]. Moreover, the log2 fold change with gefitinib was inactive: -0.03; in [3], inactive: 0.01; in the assay with lapatinib, inactive: 0.025; with pictilisib, inactive: 0.055.

For the target ATRN (UniProt O75882), the log2 fold change was inactive: -0.243 in assay [1]; inactive: -0.037 with filanesib; inactive: 0 with zotarolimus; inactive: -0.032 with idasanutlin; inactive: 0.095 in the assay with alisertib; inactive: -0.004 in assay [2]. The log2 fold change with gefitinib is inactive: 0.108; in assay [3], inactive: 0.111; in the assay with lapatinib it was inactive: 0.043; in the assay with pictilisib, inactive: 0.153.

Take BORCS5 (UniProt Q969J3): the log2 fold change is inactive: -0.012 in assay [1]; inactive: -0.073 in the assay with filanesib; inactive: 0 with zotarolimus; inactive: 0.004 with idasanutlin; inactive: 0.276 in the assay with alisertib; inactive: 0.007 in [2]. Further, the log2 fold change in the assay with gefitinib was inactive: 0.001; in assay [3], inactive: 0.017; with lapatinib, inactive: 0.009; with pictilisib, inactive: -0.09.

In the case of BRD8 (UniProt Q9H0E9), the log2 fold change in assay [1] is inactive: -0.013; with filanesib it was inactive: 0.064; with zotarolimus it was inactive: -0.029; with idasanutlin, inactive: 0.08; with alisertib it was inactive: -0.061; in assay [2] it was inactive: -0.032. In addition, the log2 fold change with gefitinib is inactive: 0.005; in assay [3], inactive: 0.017; with lapatinib, inactive: -0.009; with pictilisib, inactive: 0.103.

For the target BCAS2 (UniProt O75934), the log2 fold change in assay [1] is inactive: -0.037; with filanesib, inactive: 0.041; with zotarolimus it was inactive: 0.05; with idasanutlin, inactive: -0.06; with alisertib, inactive: -0.119; in assay [2], inactive: 0.043. Further, the log2 fold change in the assay with gefitinib is inactive: -0.038; in assay [3], inactive: 0.01; with lapatinib, inactive: -0.05; with pictilisib, inactive: -0.015.
